Results: patent publication US6482805B2 (Parker Hughes Institute, priority 1998, dated 2002)

Tested on: normal human endocervical epithelial cells
Assay type: cell-based
Conditions: ratio of IC50 to EC50
Description: The potential cytotoxicity of aryl phosphate derivatives of bromo-methoxy ZDV in comparison to N-9, against normal human ectocervical and endocervical epithelial cells (Clonetics Corporation, San Diego, Calif.), was measured using MTT (3-[4,5-dimethylthiazol-2-yl]-2,5-diphenyl tetrazolium bromide) cell viability assays (Boehringer Mannheim Corp., Indianapolis, Ind.) [see, D'Cruz O J, et al., Mol Hum Reprod 1999; 5:421-432; D'Cruz O J, et al., Contraception 1999; 59 (in press); and Uckun F M, et al., Antimicrob Agents Chemther 1998; 42:383-388]. Briefly, exponentially growing ectocervical and endocervical epithelial cells were seeded into 96-well plate at a density of 2×10^5 cells/well and incubated for 24 h at 37° C. prior to drug exposure. On the day of treatment, culture medium was carefully aspirated from the wells and replaced with fresh medium containing drug concentrations ranging from 3.9 μM to 1000 μm. Triplicate wells were used for each treatment. The cells were incubated with the various compounds for 24 hours at 37° C. in a humidified 5% CO2 atmosphere. […] The absorbance of each well was measured in a microtiter reader at 540 nm and a reference wavelength of 690 nm. […] The percent cell survival was calculated using the formula: % survival=live cell number[test]/live cell number[control]×100. The results were expressed as IC50 values. […]

Row | Structure (SMILES) | SI (endocervical cells)
1 | COC(=O)C(C)NP(=O)(OCC1OC(N2C(=O)NC(=O)C(C)(Br)C2OC)CC1N=[N+]=[N-])Oc1ccc(Br)cc1 (centres unmarked) [WHI-07, 5-Bromo-6-methoxy-5,6-dihydro-3′-azidothymidine-5′-(p-Bromophenyl Methoxyalaninyl Phosphate)] | 62.4
2 | CCCCCCCCCc1ccc(OCCOCCOCCOCCOCCOCCOCCOCCOCCO)cc1 [Compound N-9, nonoxynol-9, reference compound] | 0.19
